Measured values published in patent US20260224661A1.
Results are given in words; binding and its absence hold for the method and conditions named. Some results given as binding are weak or reduced against the parent protein; the word gives no strength.

Sequences of proteins named here, by UniProt entry; tags and fusion partners are left off. A change or cut given only in a name is not applied to a line headed by its entry.
UniProt Q9UKZ4: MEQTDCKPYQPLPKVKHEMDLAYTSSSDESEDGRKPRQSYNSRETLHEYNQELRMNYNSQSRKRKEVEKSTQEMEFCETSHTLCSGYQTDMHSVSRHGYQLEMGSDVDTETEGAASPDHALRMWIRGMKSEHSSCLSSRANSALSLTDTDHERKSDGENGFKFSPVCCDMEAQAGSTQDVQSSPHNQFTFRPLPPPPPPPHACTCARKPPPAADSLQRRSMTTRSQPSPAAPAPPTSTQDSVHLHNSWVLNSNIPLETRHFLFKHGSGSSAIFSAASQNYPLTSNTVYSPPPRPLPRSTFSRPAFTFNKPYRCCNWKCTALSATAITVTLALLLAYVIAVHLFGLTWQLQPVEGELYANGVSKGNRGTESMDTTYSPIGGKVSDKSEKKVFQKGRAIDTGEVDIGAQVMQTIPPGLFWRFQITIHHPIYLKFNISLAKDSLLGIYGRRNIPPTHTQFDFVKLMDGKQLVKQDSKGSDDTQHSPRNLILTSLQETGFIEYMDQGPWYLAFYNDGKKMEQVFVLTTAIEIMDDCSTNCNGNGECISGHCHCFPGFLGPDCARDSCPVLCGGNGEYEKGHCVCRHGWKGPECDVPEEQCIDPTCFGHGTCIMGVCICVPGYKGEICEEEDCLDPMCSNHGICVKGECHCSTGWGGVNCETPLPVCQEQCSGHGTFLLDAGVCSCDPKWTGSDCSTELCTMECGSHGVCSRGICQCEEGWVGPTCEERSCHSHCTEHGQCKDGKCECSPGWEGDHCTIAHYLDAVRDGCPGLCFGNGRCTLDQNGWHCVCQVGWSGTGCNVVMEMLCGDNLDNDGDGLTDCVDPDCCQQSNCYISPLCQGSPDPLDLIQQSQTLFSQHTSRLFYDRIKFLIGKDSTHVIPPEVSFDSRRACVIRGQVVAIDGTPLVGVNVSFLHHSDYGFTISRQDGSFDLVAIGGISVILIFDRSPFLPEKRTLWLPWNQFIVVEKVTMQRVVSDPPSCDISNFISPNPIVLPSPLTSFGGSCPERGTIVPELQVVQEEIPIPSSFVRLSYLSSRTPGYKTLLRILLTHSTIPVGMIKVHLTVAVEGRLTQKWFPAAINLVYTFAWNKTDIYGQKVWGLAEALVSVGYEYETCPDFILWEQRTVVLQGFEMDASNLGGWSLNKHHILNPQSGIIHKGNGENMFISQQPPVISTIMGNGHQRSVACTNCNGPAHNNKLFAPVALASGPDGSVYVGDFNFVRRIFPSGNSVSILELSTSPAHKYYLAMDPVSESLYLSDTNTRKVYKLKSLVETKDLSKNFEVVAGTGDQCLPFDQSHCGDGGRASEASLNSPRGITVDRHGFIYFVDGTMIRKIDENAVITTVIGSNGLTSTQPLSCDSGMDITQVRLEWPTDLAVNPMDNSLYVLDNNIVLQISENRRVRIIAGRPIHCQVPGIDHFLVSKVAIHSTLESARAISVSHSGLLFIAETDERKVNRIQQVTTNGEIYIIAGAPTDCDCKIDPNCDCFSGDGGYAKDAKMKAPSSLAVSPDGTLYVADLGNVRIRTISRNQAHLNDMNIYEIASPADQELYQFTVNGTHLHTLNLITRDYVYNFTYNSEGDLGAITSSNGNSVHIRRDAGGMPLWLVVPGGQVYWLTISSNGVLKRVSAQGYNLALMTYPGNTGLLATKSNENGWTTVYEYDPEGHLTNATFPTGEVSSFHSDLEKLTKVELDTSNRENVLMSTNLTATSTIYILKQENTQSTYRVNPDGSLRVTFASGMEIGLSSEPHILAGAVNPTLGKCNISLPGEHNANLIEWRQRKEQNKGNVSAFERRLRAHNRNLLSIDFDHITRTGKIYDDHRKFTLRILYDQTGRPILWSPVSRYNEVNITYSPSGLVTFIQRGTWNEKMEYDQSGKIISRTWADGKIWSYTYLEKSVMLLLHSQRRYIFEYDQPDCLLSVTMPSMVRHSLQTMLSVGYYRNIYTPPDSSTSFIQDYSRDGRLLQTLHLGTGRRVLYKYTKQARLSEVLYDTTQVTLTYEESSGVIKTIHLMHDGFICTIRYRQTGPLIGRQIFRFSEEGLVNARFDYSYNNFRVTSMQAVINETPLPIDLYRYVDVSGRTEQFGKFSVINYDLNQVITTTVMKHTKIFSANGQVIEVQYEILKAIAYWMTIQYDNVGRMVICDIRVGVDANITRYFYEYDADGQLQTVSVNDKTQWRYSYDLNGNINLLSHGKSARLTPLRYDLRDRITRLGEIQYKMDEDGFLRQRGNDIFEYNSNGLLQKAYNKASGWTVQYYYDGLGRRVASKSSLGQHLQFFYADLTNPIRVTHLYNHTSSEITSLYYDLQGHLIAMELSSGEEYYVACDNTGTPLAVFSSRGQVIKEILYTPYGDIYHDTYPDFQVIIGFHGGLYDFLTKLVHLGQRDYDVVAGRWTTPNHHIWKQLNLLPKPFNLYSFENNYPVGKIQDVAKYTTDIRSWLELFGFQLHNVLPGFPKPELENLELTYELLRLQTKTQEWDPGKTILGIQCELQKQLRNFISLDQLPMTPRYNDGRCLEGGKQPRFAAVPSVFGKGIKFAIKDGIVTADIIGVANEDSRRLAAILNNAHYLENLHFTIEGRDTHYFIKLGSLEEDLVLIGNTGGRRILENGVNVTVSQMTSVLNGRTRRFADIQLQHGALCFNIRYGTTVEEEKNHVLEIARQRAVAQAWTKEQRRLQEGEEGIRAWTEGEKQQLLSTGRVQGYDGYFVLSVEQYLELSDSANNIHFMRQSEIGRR
UniProt Q9NT68: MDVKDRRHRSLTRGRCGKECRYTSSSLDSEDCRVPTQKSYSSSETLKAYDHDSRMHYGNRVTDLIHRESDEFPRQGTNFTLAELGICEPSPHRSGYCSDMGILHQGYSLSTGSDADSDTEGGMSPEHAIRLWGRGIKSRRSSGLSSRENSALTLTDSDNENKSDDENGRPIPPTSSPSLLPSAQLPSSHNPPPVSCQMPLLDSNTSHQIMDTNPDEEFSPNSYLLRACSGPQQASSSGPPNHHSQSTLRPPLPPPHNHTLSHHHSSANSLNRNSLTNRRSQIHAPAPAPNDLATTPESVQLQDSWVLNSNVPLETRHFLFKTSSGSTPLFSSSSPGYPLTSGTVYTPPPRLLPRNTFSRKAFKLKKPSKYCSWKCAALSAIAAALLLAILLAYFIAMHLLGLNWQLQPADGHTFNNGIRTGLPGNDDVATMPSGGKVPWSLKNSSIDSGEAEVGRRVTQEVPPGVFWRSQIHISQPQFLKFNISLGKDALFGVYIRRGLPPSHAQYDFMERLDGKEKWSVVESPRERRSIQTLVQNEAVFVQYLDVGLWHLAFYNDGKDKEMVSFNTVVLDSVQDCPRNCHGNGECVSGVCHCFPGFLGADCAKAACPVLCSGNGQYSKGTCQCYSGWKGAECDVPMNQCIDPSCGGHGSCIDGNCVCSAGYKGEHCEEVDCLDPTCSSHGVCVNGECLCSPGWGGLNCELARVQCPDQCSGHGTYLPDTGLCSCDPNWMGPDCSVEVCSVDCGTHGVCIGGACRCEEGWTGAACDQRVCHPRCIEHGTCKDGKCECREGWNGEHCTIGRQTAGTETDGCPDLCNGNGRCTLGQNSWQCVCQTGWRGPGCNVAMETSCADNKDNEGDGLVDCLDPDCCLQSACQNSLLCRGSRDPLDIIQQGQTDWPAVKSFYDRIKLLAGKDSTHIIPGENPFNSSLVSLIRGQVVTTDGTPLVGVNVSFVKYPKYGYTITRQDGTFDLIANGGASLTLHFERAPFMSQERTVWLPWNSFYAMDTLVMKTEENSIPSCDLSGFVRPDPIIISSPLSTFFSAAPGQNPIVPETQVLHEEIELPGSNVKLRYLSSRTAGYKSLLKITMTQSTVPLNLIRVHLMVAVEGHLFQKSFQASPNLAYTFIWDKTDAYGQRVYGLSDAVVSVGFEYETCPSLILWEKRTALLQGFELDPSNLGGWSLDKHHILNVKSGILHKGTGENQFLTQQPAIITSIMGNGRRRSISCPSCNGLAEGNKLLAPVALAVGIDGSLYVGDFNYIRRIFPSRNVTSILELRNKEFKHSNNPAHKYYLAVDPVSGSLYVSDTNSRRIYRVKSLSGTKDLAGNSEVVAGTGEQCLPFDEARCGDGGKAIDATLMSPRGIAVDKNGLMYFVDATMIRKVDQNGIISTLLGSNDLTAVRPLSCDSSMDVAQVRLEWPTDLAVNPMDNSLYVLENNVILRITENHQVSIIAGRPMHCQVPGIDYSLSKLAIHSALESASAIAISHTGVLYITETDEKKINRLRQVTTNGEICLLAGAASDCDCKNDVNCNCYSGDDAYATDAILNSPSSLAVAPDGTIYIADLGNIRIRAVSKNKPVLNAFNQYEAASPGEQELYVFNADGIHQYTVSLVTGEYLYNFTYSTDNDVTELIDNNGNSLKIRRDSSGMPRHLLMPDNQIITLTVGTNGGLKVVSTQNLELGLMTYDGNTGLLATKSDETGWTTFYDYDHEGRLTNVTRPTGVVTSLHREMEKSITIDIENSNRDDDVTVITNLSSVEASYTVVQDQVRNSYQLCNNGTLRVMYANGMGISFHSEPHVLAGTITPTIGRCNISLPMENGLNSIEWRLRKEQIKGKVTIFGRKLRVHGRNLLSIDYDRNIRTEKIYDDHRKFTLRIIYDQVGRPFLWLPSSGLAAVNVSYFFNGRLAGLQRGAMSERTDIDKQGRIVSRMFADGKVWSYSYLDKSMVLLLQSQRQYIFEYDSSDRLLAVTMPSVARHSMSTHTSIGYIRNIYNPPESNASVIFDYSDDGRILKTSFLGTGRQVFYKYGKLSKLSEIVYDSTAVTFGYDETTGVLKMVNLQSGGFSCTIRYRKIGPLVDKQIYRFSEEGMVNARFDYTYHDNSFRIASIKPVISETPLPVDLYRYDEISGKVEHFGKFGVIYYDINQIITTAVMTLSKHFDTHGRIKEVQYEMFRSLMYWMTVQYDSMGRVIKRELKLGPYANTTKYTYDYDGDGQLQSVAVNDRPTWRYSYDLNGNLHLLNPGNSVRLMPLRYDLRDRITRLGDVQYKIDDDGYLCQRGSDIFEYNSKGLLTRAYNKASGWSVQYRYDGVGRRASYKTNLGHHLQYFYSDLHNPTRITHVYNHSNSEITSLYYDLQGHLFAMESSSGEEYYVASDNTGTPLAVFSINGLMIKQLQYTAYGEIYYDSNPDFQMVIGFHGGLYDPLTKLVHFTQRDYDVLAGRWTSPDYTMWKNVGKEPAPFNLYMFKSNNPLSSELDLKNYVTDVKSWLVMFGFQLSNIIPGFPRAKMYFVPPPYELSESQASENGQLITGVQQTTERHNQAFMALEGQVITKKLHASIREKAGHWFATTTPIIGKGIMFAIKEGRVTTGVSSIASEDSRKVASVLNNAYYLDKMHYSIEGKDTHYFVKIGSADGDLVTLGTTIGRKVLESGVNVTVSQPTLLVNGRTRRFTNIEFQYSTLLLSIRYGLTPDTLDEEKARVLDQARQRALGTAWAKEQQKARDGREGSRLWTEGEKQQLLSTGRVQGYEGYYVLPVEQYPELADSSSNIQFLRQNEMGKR

Assays:
[1] = biological target: Tenm1 expressed in HEK293 cells (human) (UniProt Q9UKZ4); test: surface-binding assay on HEK293 cells expressing Tenm1 (FIG. 4)
[2] = biological target: Tenm2 expressed in HEK293 cells (human) (UniProt Q9NT68); test: surface-binding assay on HEK293 cells expressing Tenm2 (FIG. 4)
[3] = biological target: Tenm1 expressed in HEK293 cells (human) (UniProt Q9UKZ4); test: surface-binding assay on HEK293 cells expressing Tenm1 (FIG. 4D)
[4] = biological target: Tenm2 expressed in HEK293 cells (human) (UniProt Q9NT68); test: surface-binding assay on HEK293 cells expressing Tenm2 (FIG. 4D)

Measured: binding

B1: follistatin-like domain of SPARCL1 (ligand)
chain: PNAEPSDEGNSREHSAGSCTNFQCKRGHICKTDPQGKPHCVCQDPETCPPAKILDQACGTDNQTYASSCHLFATKCRLEGTKKGHQLQLDYFGACKSIP
binds: all assays above
